These results are taken from PMC10848721.

The chains are these.
B1: RILPL1-GFP WT [not stated] / endogenous TMEM55B [human (endogenous in HEK293)] (parent)
chain 1: MEEERGSALAAESALEKNVAELTVMDVYDIASLVGHEFERVIDQHGCEAIARLMPKVVRVLEILEVLVSRHHVAPELDELRLELDRLRLERMDRIEKERKHQKELELVEDVWRGEAQDLLSQIAQLQEENKQLMTNLSHKDVNFSEEEFQKHEGMSERERQVMKKLKEVVDKQRDEIRAKDRELGLKNEDVEALQQQQTRLMKINHDLRHRVTVVEAQGKALIEQKVELEADLQTKEQEMGSLRAELGKLRERLQGEHSQNGEEEPETEPVGEESISDAEKVAMDLKDPNRPRFTLQELRDVLHERNELKSKVFLLQEELAYYKSEEMEEENRIPQPPPIAHPRTSPQPESGIKRLFSFFSRDKKRLANTQRNVHIQESFGQWANTHRDDGYTEQGQEALQHL
chain 2: MAADGERSPLLSEPIDGGAGGNGLVGPGGSGAGPGGGLTPSAPPYGAGKHAPPQAFPPFPEGHPAVLPGEDPPPYSPLTSPDSGSAPMITCRVCQSLINVEGKMHQHVVKCGVCNEATPIKNAPPGKKYVRCPCNCLLICKVTSQRIACPRPYCKRIINLGPVHPGPLSPEPQPMGVRVICGHCKNTFLWTEFTDRTLARCPHCRKVSSIGRRYPRKRCICCFLLGLLLAVTATGLAFGTWKHARRYGGIYAAWAFVILLAVLCLGRALYWACMKVSHPVQNFS
B2: Halo-TMEM55B [not stated] / RILPL1 (found with overexpressed TMEM55B or TMEM55A) [not stated] (parent)
chain 1: B1 chain 2
chain 2: B1 chain 1

One test covers variants of B1. Kind of test: co-immunoprecipitation (GFP IP), quantitative immunoblot (LI-COR). As to conditions: with endogenous TMEM55B [human (endogenous in HEK293)]; HEK293 cells co-transfected with FLAG-LRRK2 Y1699C and HA-Rab8A Q67L, lysed 24 hours after transfection; parent: 700; read off a plot. In general terms: A western blot detects proteins with antibodies after separation by electrophoresis.
For the variant chain 1 Y392A, the response came to 640.

Take chain 1 G391A: the response was 640.

Turning to chain 1 G396A, the response amounted to 610.

As for chain 1 H402A, the response is 690.

For the variant chain 1 E398K, the response was determined as 130.

As for chain 1 Q401A, the response is 760.

For the variant chain 1 Q397A, the response was 240.

In the case of chain 1 T393A, the response is 360.

On to chain 1 L403A, for which the response stood at 360.

Regarding chain 1 E394K, the response was 110.

Regarding chain 1 A399L, the response is 130.

For chain 1 Q395A, the response was 350.

With chain 1 L400A, the response was 270.

Variants of B2 are the subject of a further test. Kind of test: co-immunoprecipitation (Halo IP), quantitative immunoblot (LI-COR). As to conditions: HEK293 cells co-transfected with FLAG-LRRK2 Y1699C and HA-Rab8A Q67L, lysed 24 hours after transfection, parent: 370, read off a plot.
Regarding chain 1 V108T, the response was 120.

In the case of chain 1 A117S, the response amounted to 60.

Consider chain 1 K141E, for which the response is 260.
